From the supplement of paper PMC9103864 come the findings set out here.

The test concerns BMSC (primary human bone marrow mesenchymal stromal cells). In words: drug sensitivity score (DSS); higher = more sensitive.

`C[C@@H]1C[C@H](N)C[C@H](c2ccncc2NC(=O)c2ccc(F)c(-c3c(F)cccc3F)n2)C1` [PIM-447]: the drug sensitivity score stood at 4.1.
